The reference is the same well before dosing, and untreated signal decays as well.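 Labels refer to human fibroblasts, largely primary: uterine (C12385, HUF), lung (H6013), bone (Hs27A), adrenal (HADF), skin (WS1), plus mammary HMF and breast cancer-associated Hs343T. Cancer lines are basal-like or mesenchymal-like triple-negative breast cancer. The paper counts as hits responses shifting over 3x the replicate standard deviation. The tissue of the other fibroblasts is not given here.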
Test system: Hs578T
Test: relative JC-1 red fluorescence (viability) vs pre-drug, coculture with fibroblast (fraction); higher = more viable cancer cells
Method: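 JC-1 labelled TNBC cells cocultured 1:1 (1,500 cells each) with CellTrace Violet stained primary or stromal fibroblasts in 384-well plates in FluoroBrite medium, treated with one of 42 anticancer drugs at 0.1, 1, 10 or 100 uM. JC-1 red fluorescence (mitochondrial integrity in cancer cells only) was read by plate reader every 8 h for 72 h. Values are normalised to each well's pre-drug value. The stock of one drug was tenfold lower, so its dose labels may be too high.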

C[C@]12CC[C@@H]3c4ccc(O)cc4C[C@@H](CCCCCCCCC[S+]([O-])CCCC(F)(F)C(F)(F)F)[C@H]3[C@@H]1CC[C@@H]2O (stereo partly drawn) [Fulvestrant]
relative JC-1 red fluorescence
Settings	8 h	16 h	24 h	32 h	40 h	48 h	56 h	64 h	72 h
10 µM	0.904	0.864	0.819	0.793	0.761	0.731	0.728	0.688	0.671
100 µM	0.86	0.93	0.877	0.852	0.81	0.77	0.759	0.715	0.698

relative JC-1 red fluorescence
Settings	8 h	16 h	24 h	32 h	40 h	48 h	56 h	64 h	72 h
10 µM, coculture fibroblast: C12385	0.9075	0.856	0.781	0.735	0.683	0.653	0.625	0.605	0.596
10 µM, coculture fibroblast: H6013	0.957	0.934	0.85	0.834	0.801	0.782	0.758	0.749	0.71
10 µM, coculture fibroblast: H6019	0.8744	0.824	0.754	0.682	0.639	0.612	0.583	0.56	0.538
10 µM, coculture fibroblast: H6076	0.898	0.8527	0.817	0.81207	0.7863	0.8	0.778	0.771	0.76
10 µM, coculture fibroblast: H6231	0.835	0.833	0.854	0.899	0.841	0.81	0.736	0.721	0.711
10 µM, coculture fibroblast: HADF	0.973	0.9362	0.8745	0.8431	0.808	0.78	0.753	0.74	0.7
10 µM, coculture fibroblast: HCFa	0.985	0.853	0.915	0.856	0.796	0.779	0.753	0.743	0.718
10 µM, coculture fibroblast: HCPF	0.876	0.856	0.92	0.883	0.836	0.809	0.785	0.744	0.723
10 µM, coculture fibroblast: HHSteC	0.9202	0.8628	0.7616	0.715	0.655	0.619	0.588	0.561	0.518
10 µM, coculture fibroblast: HMF	0.844	0.843	0.839	0.81	0.747	0.72092	0.684	0.659	0.642
10 µM, coculture fibroblast: HPFa	0.813	0.9377	0.88	0.847	0.81	0.784	0.751	0.736	0.695
10 µM, coculture fibroblast: HUF	0.935	0.876	0.821	0.731	0.691	0.658	0.627	0.598	0.582
10 µM, coculture fibroblast: Hs27A	0.936	0.921	0.886	0.854	0.7941	0.775	0.743	0.736	0.688
10 µM, coculture fibroblast: Hs343T	0.936	0.867	0.797	0.795	0.737	0.718	0.686	0.659	0.652
10 µM, coculture fibroblast: WS1	0.9	0.878	0.797	0.722	0.675	0.663	0.636	0.621	0.606
100 µM, coculture fibroblast: C12385	0.986	0.9531	0.954	0.915	0.868	0.859	0.855	0.86	0.86
100 µM, coculture fibroblast: H6013	0.952	0.937	0.906	0.914	0.901	0.892	0.874	0.865	0.834
100 µM, coculture fibroblast: H6019	0.881	0.832	0.824	0.759	0.737	0.721	0.692	0.666	0.6371
100 µM, coculture fibroblast: H6076	0.83	0.966	0.931	0.928	0.907	0.908	0.907	0.897	0.893
100 µM, coculture fibroblast: H6231	0.844	0.772	0.789	0.782	0.765	0.852	0.983	0.971	0.95
100 µM, coculture fibroblast: HADF	0.898	0.79	0.915	0.891	0.87	0.851	0.835	0.832	0.802
100 µM, coculture fibroblast: HCFa	0.949	0.924	0.904	0.856	0.732	0.707	0.71	0.755	0.677
100 µM, coculture fibroblast: HCPF	0.734	0.87	0.8639	0.873	0.9667	0.9545	0.9525	0.913	0.8871
100 µM, coculture fibroblast: HHSteC	0.903	0.864	0.854	0.886	0.841	0.83	0.894	0.914	0.85
100 µM, coculture fibroblast: HMF	0.81	0.86	0.827	0.806	0.95	0.837	0.967	0.954	0.8898
100 µM, coculture fibroblast: HPFa	0.98	0.943	0.896	0.871	0.847	0.834	0.811	0.804	0.768
100 µM, coculture fibroblast: HUF	0.919	0.853	0.9064	0.845	0.812	0.795	0.7679	0.764	0.759
100 µM, coculture fibroblast: Hs27A	0.9481	0.9289	0.911	0.899	0.874	0.873	0.861	0.886	0.841
100 µM, coculture fibroblast: Hs343T	0.914	0.863	0.954	0.949	0.887	0.869	0.847	0.8185	0.80316
100 µM, coculture fibroblast: WS1	0.918	0.885	0.841	0.7795	0.7403	0.7374	0.715	0.7206	0.7141

— the supplement of paper PMC6078165
